At least one compound was matched to its structure with a doubt left.
Biological target: T1, clostripain (Hathewaya histolytica, UniProt P09870)
T1 construct: This protease is a heterodimer; purchased Worthington
Assay: Effect of organic solvent on clostripain proteolytic activity (N-Bz-Phe-Val-Arg-p-nitroanilide substrate, photometric initial rates)
Type: biochemical
Conditions: varying amounts of organic solvent, otherwise as Table III
Experimental: A substrate solution (1 mL) of 2 mg N-Bz-Phe-Val-Arg-p-nitroanilide in 2.5 mM dithiothreitol, 1 mM calcium chloride, 50 mM Tricine buffer at pH 8.5 was incubated at room temperature with 10 μg of clostripain, in an aqueous solution containing 10% (v/v) of organic solvent. Initial rates were determined by photometric detection of the liberated […].
These reactions were repeated in the presence of varying amounts of organic solvent, and optimal concentrations for proteolytic activity were determined for propylene carbonate (10%), N,N-dimethylformamide (20%), trifluoroethanol (20%), and acetonitrile (20%).

By UniProt entry, the sequences of proteins in these tests, tags left out. Residues count along the entry.
UniProt P09870, 191-526: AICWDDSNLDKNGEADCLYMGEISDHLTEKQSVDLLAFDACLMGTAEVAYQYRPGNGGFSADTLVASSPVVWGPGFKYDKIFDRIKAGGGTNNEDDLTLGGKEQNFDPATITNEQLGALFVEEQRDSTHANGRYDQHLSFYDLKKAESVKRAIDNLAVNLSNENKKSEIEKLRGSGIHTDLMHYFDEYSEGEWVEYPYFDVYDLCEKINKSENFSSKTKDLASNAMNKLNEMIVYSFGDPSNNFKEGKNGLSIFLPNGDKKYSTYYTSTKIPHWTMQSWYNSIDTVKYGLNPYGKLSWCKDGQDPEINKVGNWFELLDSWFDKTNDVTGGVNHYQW
UniProt P09870, 51-181: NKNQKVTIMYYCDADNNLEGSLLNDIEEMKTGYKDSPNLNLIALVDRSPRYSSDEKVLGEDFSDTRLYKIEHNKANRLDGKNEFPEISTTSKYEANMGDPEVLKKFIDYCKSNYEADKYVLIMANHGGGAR

With OCC(F)(F)F [Trifluoroethanol] as the molecule, how does the “optimal concentration for proteolytic activity” value read?
The value was 20%.

Source: patent US6461834B1, “Clostripain catalyzed amidation of peptides” (Bionebraska, Inc., priority 1998, dated 2002)
